{"source": "PubChem BioAssay AID1224827 | NIAID | 2016", "screen": "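Retest primary hits on a TNF reporter with six siRNAs per gene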 (follow-up of hits)", "system": "RAW264.7 G9 mouse macrophage reporter clone", "reagent": "single siRNA against mouse genes, 100 nM siRNA", "duration": "siRNA for 2 days, then LPS about 16 h", "treatment": "bacterial lipopolysaccharide (LPS), 10 ng/ml, cells fixed after overnight (about 16 h) stimulation", "measured": "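Imaged nuclear TNF reporter intensity, background removed, scaled per plate and to non-targeting control wells, as z-scores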", "reading the numbers": "TNF reporter z-score, mean: higher = stronger Tnf promoter reporter signal; gene median z, three same-vendor siRNAs: higher = stronger Tnf reporter signal for the gene", "rule for the call": "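Active siRNA: replicate-mean z-score of 2 or more, or -2 or less; no calls for control wells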", "note": "Shown is an unselected part of about 3,800 reagents. In the full data, about 2,200 (57%) were called active. 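Active means a strong reporter change in either direction; calls are per siRNA, not per gene; qiagen siRNAs gave weaker effects.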 The numbers tell different reagents against one gene apart. Not all columns of the deposit are shown."}
{"target gene":"Slc38a9","reagent":1,"TNF reporter z-score, mean":-0.82,"gene median z, three same-vendor siRNAs":-1.52,"Outcome":"inactive"}
{"target gene":"Slc38a9","reagent":2,"TNF reporter z-score, mean":-1.51,"gene median z, three same-vendor siRNAs":-1.52,"Outcome":"inactive"}
{"target gene":"Slc38a9","reagent":3,"TNF reporter z-score, mean":-3.99,"gene median z, three same-vendor siRNAs":-1.52,"Outcome":"active"}
{"target gene":"Vmn1r231","reagent":1,"TNF reporter z-score, mean":-3.33,"gene median z, three same-vendor siRNAs":-3.82,"Outcome":"active"}
{"target gene":"Vmn1r231","reagent":2,"TNF reporter z-score, mean":-3.62,"gene median z, three same-vendor siRNAs":-3.82,"Outcome":"active"}
{"target gene":"Vmn1r231","reagent":3,"TNF reporter z-score, mean":-4.34,"gene median z, three same-vendor siRNAs":-3.82,"Outcome":"active"}
{"target gene":"Vmn1r231","reagent":4,"TNF reporter z-score, mean":2.01,"gene median z, three same-vendor siRNAs":-1.12,"Outcome":"active"}
{"target gene":"Vmn1r231","reagent":5,"TNF reporter z-score, mean":-0.79,"gene median z, three same-vendor siRNAs":-1.12,"Outcome":"inactive"}
{"target gene":"Vmn1r231","reagent":6,"TNF reporter z-score, mean":-2.04,"gene median z, three same-vendor siRNAs":-1.12,"Outcome":"active"}
{"target gene":"Arhgef25","reagent":1,"TNF reporter z-score, mean":-2.68,"gene median z, three same-vendor siRNAs":-3.54,"Outcome":"active"}
{"target gene":"Arhgef25","reagent":2,"TNF reporter z-score, mean":-3.54,"gene median z, three same-vendor siRNAs":-3.54,"Outcome":"active"}
{"target gene":"Arhgef25","reagent":3,"TNF reporter z-score, mean":-4.18,"gene median z, three same-vendor siRNAs":-3.54,"Outcome":"active"}
{"target gene":"Arhgef25","reagent":4,"TNF reporter z-score, mean":1.62,"gene median z, three same-vendor siRNAs":-0.513,"Outcome":"inactive"}
{"target gene":"Arhgef25","reagent":5,"TNF reporter z-score, mean":-0.513,"gene median z, three same-vendor siRNAs":-0.513,"Outcome":"inactive"}
{"target gene":"Arhgef25","reagent":6,"TNF reporter z-score, mean":-3.22,"gene median z, three same-vendor siRNAs":-0.513,"Outcome":"active"}

Copied from the list.
Arhgef25 #6, Outcome = active
Entry of Arhgef25 #1 in “TNF reporter z-score, mean”: -2.68
